Chains of the proteins cited; added tags and fusions are not shown. Lines headed by an entry give the natural chain unless they say otherwise; changes in a name come on top.
UniProt P18054: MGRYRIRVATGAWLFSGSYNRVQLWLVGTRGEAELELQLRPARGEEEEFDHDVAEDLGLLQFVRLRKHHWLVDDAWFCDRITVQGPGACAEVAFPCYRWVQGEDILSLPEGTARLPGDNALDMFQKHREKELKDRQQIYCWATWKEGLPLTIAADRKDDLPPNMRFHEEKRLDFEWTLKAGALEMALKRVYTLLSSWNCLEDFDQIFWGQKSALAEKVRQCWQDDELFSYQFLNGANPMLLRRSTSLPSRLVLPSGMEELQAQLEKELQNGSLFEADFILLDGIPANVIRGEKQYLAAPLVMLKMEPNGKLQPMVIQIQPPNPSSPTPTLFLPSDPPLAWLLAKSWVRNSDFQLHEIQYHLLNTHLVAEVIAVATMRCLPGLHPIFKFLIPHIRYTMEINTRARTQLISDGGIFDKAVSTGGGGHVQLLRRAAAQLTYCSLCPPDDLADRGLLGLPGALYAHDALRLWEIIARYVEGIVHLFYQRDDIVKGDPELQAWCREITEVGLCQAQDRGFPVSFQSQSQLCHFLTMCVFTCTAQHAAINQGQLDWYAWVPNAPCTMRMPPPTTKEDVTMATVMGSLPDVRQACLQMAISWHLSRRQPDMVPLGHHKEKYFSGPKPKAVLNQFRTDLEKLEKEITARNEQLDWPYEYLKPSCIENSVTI

In all, about 580,000 compounds went through this assay and about 6,100 (1.1%) were called active. Inconclusive means that the source gave no clear call. Such entries were picked first, then a sample of the others. Calls follow the shape of the dose curve; as a rule, active = well fitted inhibition curve with a large enough effect; inconclusive = small, poorly fitted or top-dose-only effect, or another doubt; inactive = no such curve, though single readings can be large or run the other way. Where the call is inconclusive, the potency comes from a doubtful curve fit.
Each compound was assayed against Polyunsaturated fatty acid lipoxygenase ALOX12 (Homo sapiens) (UniProt P18054) (assay: Primary qHTS assay for inhibitors of human arachidonate 12S-lipoxygenase (ALOX12): Round 2). Conditions: purified 12hLO, xylenol orange hydroperoxide absorbance; series mostly up to 108 µM.
In short: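 Hydroperoxide product was detected by ferrous iron/xylenol orange as the 573 to 405 nm absorbance ratio. Arachidonic acid at 40 uM (final) was turned over for 30 min at room temperature by 150 nM human 12hLO, pH 7.0 Hepes buffer, after 15 min compound preincubation.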
For `Cc1ccc(NS(=O)(=O)c2ccc(NC(=O)c3ccccc3C(=O)O)cc2)cc1C`, the Potency was inconclusive: 39.8 µM [inhibitor, partial curve, poor fit]. In the case of `Cc1cccc(C(C)C)c1NC(=O)c1cc(F)c(F)cc1Cl`, the Potency is reported as inconclusive: 126 µM [inhibitor, single point]. `Cc1ccc2c(c1)c(=O)c1c3n2CCN(C(=O)CCl)C3CC1` (stereo not given) was tested, and the Potency was “inactive”. For `CC(=O)c1c(C)[nH]c(C(=O)C(C)OC(=O)c2ccc(F)cc2)c1C` (stereo not given), the Potency was inconclusive: 44.7 µM [inhibitor, single point]. With `CN(C)C(=O)c1ccc(-c2cncnc2NC2CCNCC2)cc1` the Potency was inconclusive: 22.4 µM [inhibitor, partial curve, poor fit]. For `CC(C)C(=O)N1CCC(CN=Cc2c(O)n(C3CCCCC3)c(=O)n(C3CCCCC3)c2=O)CC1`, the Potency was inconclusive: 100 µM [inhibitor, single point]. For `Cc1ccccc1N1CCN(C2CCCN(C(=O)c3cnsn3)C2)CC1` (stereo not given), the Potency was inconclusive: 89.1 µM [inhibitor, single point]. With `Cc1ccc(NC(=S)NCc2ccc(Cl)cc2)cc1` the Potency was inconclusive: 0.199 µM [inhibitor, full curve, poor fit]. For `CCOP(=O)(OCC)c1nc(Cc2ccc(OC)cc2)oc1NCc1ccco1`, the Potency was inconclusive: 25.1 µM [inhibitor, partial curve]. With `CC(C)(C)c1ccc(C(=O)NC(=S)NNC(=O)c2cccs2)cc1` the Potency was active: 39.8 µM. For `CC(OC(=O)CCCN=C1NS(=O)(=O)c2ccccc21)C(=O)Nc1ccc(F)c(F)c1F` (stereo not given), the Potency was inconclusive: 50.1 µM [inhibitor, partial curve, poor fit]. For `Cc1cc(C(C)(C)C)ccc1OCCN(C)C`, the Potency was inconclusive: 1.41 µM [inhibitor, full curve, poor fit]. `COc1ccc(S(=O)(=O)N(C)C[C@H]2Oc3ncc(C#CC4(O)CCCC4)cc3C(=O)N([C@@H](C)CO)C[C@@H]2C)cc1` was tested, and the Potency was inconclusive: 39.8 µM [inhibitor, partial curve]. For `Cc1cc(=S)[nH]c2ccccc12`, the Potency was inconclusive: 25.1 µM [inhibitor, single point]. With `COCCn1c(=O)[nH]c2cc(C(=O)N3CCN(c4cccc(C(F)(F)F)c4)CC3)ccc2c1=O` the Potency was inconclusive: 141 µM [inhibitor, partial curve, poor fit]. For `COc1ccc(-c2cc(-c3ccccc3O)cn3cncc23)cc1`, the Potency was inconclusive: 2 µM [inhibitor, full curve, poor fit]. In the case of `Cc1noc(C)c1-c1nccc(N2CCOCC2)n1`, the Potency is reported as inconclusive: 5.62 µM [inhibitor, full curve, poor fit]. For `CCC(Sc1nnc(C)n2c1cc1sccc12)C(=O)Nc1ccccc1F` (stereo not given), the Potency was inconclusive: 100 µM [inhibitor, partial curve, poor fit]. In the case of `CN(C)c1cccc(C(=O)Nc2nnc(Cc3ccccc3)s2)c1`, the Potency is reported as inconclusive: 112 µM [inhibitor, single point]. For `O=C(O)C1CC=CCC1C(=O)NCc1ccc(Cl)c(Cl)c1` (stereo not given), the Potency was inconclusive: 100 µM [inhibitor, single point]. In the case of `CC(C)CNC(=O)N1C[C@@H](Oc2ccccc2)C[C@@H]1C(=O)N1CCOCC1`, the Potency is reported as “inactive”. For `O=C1NCCC/C1=N\Nc1ccc(Br)cc1`, the Potency was inconclusive: 14.1 µM [inhibitor, full curve, poor fit]. With `Cc1nn2c3ccccc3n(C)c2nc1=O` the Potency was inconclusive: 178 µM [inhibitor, partial curve, poor fit]. `CCOC(=O)c1c(C)[nH]c(C)c1S(=O)(=O)NCc1cc(C)ccc1C` was tested, and the Potency was “inactive”. In the case of `Cc1ccccc1CN1CCN(c2ccc(S(=O)(=O)N3CCCC3)cn2)CC1`, the Potency is reported as inconclusive: 112 µM [inhibitor, single point]. `CC(=O)Nc1ccc2c(c1)nc1n2CCN(C2CCCCC2)C1` was tested, and the Potency was “inactive”. `COc1ccc(C2Cn3nnc(-c4noc(-c5ccc(C)s5)n4)c3CO2)cc1` (stereo not given) was tested, and the Potency was “inactive”. In the case of `COC(=O)c1ccc(C2/C(=C(/O)c3ccc(Cl)cc3)C(=O)C(=O)N2C2CCS(=O)(=O)C2)cc1` (stereo not given), the Potency is reported as inconclusive: 56.2 µM [inhibitor, partial curve, poor fit]. In the case of `O=c1c(C(c2ccc(Cl)cc2)c2c(O)nc3n(c2=O)CCS3)c(O)nc2n1CCS2`, the Potency is reported as “inactive”. In the case of `COc1ccc(CCNC(=O)c2ccc3c(=O)n(Cc4ccco4)c(=S)[nH]c3c2)cc1OC`, the Potency is reported as inconclusive: 89.1 µM [inhibitor, partial curve, poor fit]. With `Cc1ccc(NC(=O)c2ccccc2NS(=O)(=O)c2ccc(Cl)s2)cc1S(=O)(=O)N1CCOCC1` the Potency was inconclusive: 89.1 µM [inhibitor, partial curve, poor fit]. For `C=CCn1c(SCC(=O)c2ccc(O)c(O)c2)nnc1-c1ccccc1OC`, the Potency was inconclusive: 2 µM [inhibitor, full curve, poor fit]. In the case of `Cn1c(=O)c2c(nc(NC3CCCCC3)n2Cc2ccccc2F)n(C)c1=O`, the Potency is reported as “inactive”. With `COc1ccc(C(=O)NCCC2CCN(C(=O)Nc3ccc(C)c(F)c3)CC2)cc1` the Potency was “inactive”. In the case of `CCOc1ccccc1NC(=O)NC(c1ccccc1)c1nnc(-c2ccc(Cl)cc2)o1` (stereo not given), the Potency is reported as “inactive”. For `Cc1noc(C)c1-c1cc(N2CCN(C)CC2)ncn1`, the Potency was inconclusive: 79.4 µM [inhibitor, partial curve, poor fit]. In the case of `CC1(C)OC(=O)C(=CNc2cccc(C(=O)O)c2)C(=O)O1`, the Potency is reported as inconclusive: 39.8 µM [inhibitor, partial curve, poor fit]. In the case of `COc1ccc(-c2ccc3ccccc3n2)cc1OC`, the Potency is reported as inconclusive: 50.1 µM [inhibitor, partial curve, poor fit]. With `CC(=O)Nc1cccc(-c2ccnc3c2CC(C)(C(=O)Nc2ccc(F)c(Cl)c2)O3)c1` (stereo not given) the Potency was “inactive”. `COc1ccc(N2C(=O)CC(N(Cc3ccc(S(N)(=O)=O)cc3)C(C)=O)C2=O)cc1` (stereo not given) was tested, and the Potency was inconclusive: 20 µM [inhibitor, partial curve, poor fit]. In the case of `CCCSc1nnc(CSc2nc(C)cc(C)n2)n1C`, the Potency is reported as “inactive”. For `COc1ccc(-c2noc(C(=O)O)c2[C@@H](C)NC(=O)c2ccc3c(c2)OCO3)cc1`, the Potency was inconclusive: 50.1 µM [inhibitor, full curve]. `Cc1ccc(C2CC(c3ccccc3)=NN2S(C)(=O)=O)cc1` (stereo not given) was tested, and the Potency was inconclusive: 100 µM [inhibitor, single point]. With `O=C(CSc1nnc(-c2ccco2)n1C1CCCCC1)N1CCN(c2ccc(O)cc2)CC1` the Potency was inconclusive: 50.1 µM [inhibitor, partial curve, poor fit]. With `Cc1oc(-c2cccc(Cl)c2)nc1CN1CCN(S(N)(=O)=O)CC1` the Potency was “inactive”. With `COc1ccc2ccccc2c1CN1CCc2ccccc2C1` the Potency was inconclusive: 1.12 µM [inhibitor, full curve, poor fit]. `COc1ccc(-c2cnn3c4c(c(C)nc23)CCN4C(C)C)cc1OC` was tested, and the Potency was “inactive”. In the case of `COC(=O)c1ccc(NC(=S)Nc2cccc(C)n2)cc1`, the Potency is reported as inconclusive: 22.4 µM [inhibitor, partial curve, poor fit]. For `O=C(Nc1ccc(Cl)cc1)Nc1nc(-c2ccccc2O)cs1`, the Potency was inconclusive: 28.2 µM [inhibitor, partial curve, poor fit]. With `Cc1oc(-c2ccccc2)nc1CN1CCN(C(=O)c2ccco2)CC1` the Potency was inconclusive: 56.2 µM [inhibitor, partial curve, poor fit]. In the case of `CCCCOc1ccc(/C=N/Nc2cc(N3CCOCC3)nc(C)n2)cc1`, the Potency is reported as “inactive”. With `CC(=O)c1cn(CCOc2cc(C)ccc2C)c2ccccc12` the Potency was “inactive”. For `C/C=C(\C)CN1CCC(n2nccc2NC(=O)c2ccc(OC)cc2)CC1`, the Potency was inconclusive: 158 µM [inhibitor, partial curve, poor fit]. In the case of `CCn1c(SCc2cc3c(cc2Br)OCCO3)nc2cc(S(N)(=O)=O)ccc21`, the Potency is reported as inconclusive: 56.2 µM [inhibitor, partial curve, poor fit]. With `O=C(COc1ccc(Cl)cc1Cl)NCCN1CCCC1` the Potency was inconclusive: 126 µM [inhibitor, single point]. With `COc1cc(/C=C/C2=CC(C)(C)NC(=S)N2)cc(OC)c1OC` the Potency was active: 44.7 µM. With `O=[N+]([O-])c1ccccc1/C=N/n1c(-c2cccnc2)n[nH]c1=S` the Potency was inconclusive: 28.2 µM [inhibitor, partial curve, poor fit]. `C/C=C/c1ccc(OCCOCCNCc2ccccc2)c(OC)c1` was tested, and the Potency was inconclusive: 0.708 µM [inhibitor, full curve]. For `CC1CCN(C(=O)CC(c2ccc(Cl)cc2)c2cn(C)c3ccccc23)CC1` (stereo not given), the Potency was inconclusive: 35.5 µM [inhibitor, single point]. `CCOC(=O)N1CCN(Cc2nc(N)nc(Nc3ccc(C)cc3C)n2)CC1` was tested, and the Potency was inconclusive: 28.2 µM [inhibitor, partial curve, poor fit]. For `CCCCc1c(C)[nH]c2c(C)cccc2c1=S`, the Potency was inconclusive: 3.98 µM [inhibitor, full curve, poor fit]. `CCOC(=O)c1sc2ncn(CC(=O)Nc3ccc(C)cc3C)c(=O)c2c1C` was tested, and the Potency was “inactive”. For `CC(=O)N1C=Cc2ccccc2C1CC(=O)Nc1cccc(S(=O)(=O)N2CCCCCC2)c1` (stereo not given), the Potency was inconclusive: 100 µM [inhibitor, single point]. With `COc1cc(-c2cc(NC(C)=O)c3ncc(-c4cc(OC)c(OC)c(OC)c4)n3c2)cc(OC)c1OC` the Potency was “inactive”. With `Cc1cc(C)c(/C=C/c2onc(C)c2S(=O)(=O)N2CCC(C(=O)N3CCN(c4ccccc4)CC3)CC2)c(C)c1` the Potency was inconclusive: 100 µM [inhibitor, partial curve, poor fit].
Potency is read from the fitted curve at half-maximal effect.
